Data set [1] is filed under the species Rattus norvegicus. To be noted: in vivo, ip, 10 min.
For data set [2], the species on record is Rattus norvegicus. The experiment in a line: animal or person. To be noted: Wistar, read-out: MED.
The species entered for data set [3] is Rattus norvegicus. Put plainly: animal or person. To be noted: Wistar, ip, read-out: MED.

For two compounds, MED and minimal effective dose results are on record in ChEMBL document CHEMBL5046222, “Multifunctional Arylsulfone and Arylsulfonamide-Based Ligands with Prominent Mood-Modulating Activity and Benign Safety Profile, Targeting Neuropsychiatric Symptoms of Dementia” (J Med Chem, 2021).

Compound `Cc1nc2n(c(=O)c1CCN1CCC(c3noc4cc(F)ccc34)CC1)CCCC2` [RISPERIDONE] showed an MED in the data set filed under Rattus norvegicus [1] of 1 mg/kg. For the same compound, the minimal effective dose in the data set listed under Rattus norvegicus [2] was found to be 3 mg/kg; in the data set filed under Rattus norvegicus [3], 0.3 mg/kg.

Regarding `Cc1cc2c(s1)Nc1ccccc1N=C2N1CCN(C)CC1` [OLANZAPINE], in the data set filed under Rattus norvegicus [1], the MED was 1 mg/kg. Further, the minimal effective dose in the data set filed under Rattus norvegicus [2] and in the data set filed under Rattus norvegicus [3] was 3 mg/kg throughout.
